# Library screen at single concentrations

The chains behind the UniProt entries cited, without tags or fusion partners. Residues count along the entry.
UniProt A4I591, 1-473: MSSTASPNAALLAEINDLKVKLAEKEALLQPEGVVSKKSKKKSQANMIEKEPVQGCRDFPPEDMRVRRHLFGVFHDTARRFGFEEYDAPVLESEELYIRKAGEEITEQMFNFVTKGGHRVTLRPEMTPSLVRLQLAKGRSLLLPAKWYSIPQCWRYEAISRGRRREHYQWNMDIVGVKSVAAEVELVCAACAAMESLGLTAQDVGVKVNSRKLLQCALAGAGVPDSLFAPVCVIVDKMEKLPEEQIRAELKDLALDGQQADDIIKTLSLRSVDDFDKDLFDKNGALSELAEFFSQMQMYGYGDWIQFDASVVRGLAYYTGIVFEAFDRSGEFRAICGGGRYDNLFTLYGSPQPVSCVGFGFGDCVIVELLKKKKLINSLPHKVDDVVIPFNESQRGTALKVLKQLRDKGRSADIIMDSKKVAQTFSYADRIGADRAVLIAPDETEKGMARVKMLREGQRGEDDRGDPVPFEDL

LiHisRS: 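Enzyme assay of histidyl-tRNA synthetase; the read-out is not stated. Target: Histidine-tRNA ligase, Leishmania infantum (UniProt A4I591). Tested at 30 µM. The record gives no direction; compounds that gave an IC50 in retests scored well above the rest, so higher reads as stronger inhibition. The assay is labelled LdHisRS but filed under L. infantum. Of about 69,000 compounds tested this way, about 410 (0.6%) reached 50% or more in at least one test.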
Toxoplasma: 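Assay of Toxoplasma gondii numbers, read through their beta-galactosidase reporter with a colour substrate. Compounds at 10 µM. The record gives no direction; the compounds picked for IC50 retests had high values, so higher reads as fewer parasites. Of about 67,000 compounds tested this way, about 260 (0.38%) reached 50% or more in at least one test.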

The filed quantity is “Percent Effect” (%). How 0% and 100% were set is not recorded. Most values in the screen are low, and negative values occur. The compounds are a random part of those screened. A dash means the value is not listed here; it may have been measured.

{"structure": "COc1ccccc1CNC1(CCO)CCOCC1", "LiHisRS": 28.57, "Toxoplasma": -2.308}
{"structure": "COCCC(=O)N1CCC2(CCN(Cc3cccc(F)c3)CC2)CC1", "LiHisRS": 5}
{"structure": "Cc1nc(N2CCOCC2)ncc1-c1cc(O)nc(N2CCCCC2)n1", "LiHisRS": 8.621, "Toxoplasma": 15.56}
{"structure": "Cc1nc(CN2CCC3(C2)CN(C(=O)c2ccc[nH]2)C3)cs1", "LiHisRS": 2.703, "Toxoplasma": 16.33}
{"structure": "CN(C)c1ncccc1CNS(=O)(=O)c1ccc(F)c(F)c1", "LiHisRS": 16.95, "Toxoplasma": 3.976}
{"structure": "CN(C)C(=O)Cc1ccc(NCc2nccn2C)cc1", "LiHisRS": 7.042, "Toxoplasma": 2.481}
{"structure": "Cc1nccc(N2CCCC2CCNS(C)(=O)=O)n1", "stereo": "stereo not shown", "LiHisRS": 4.255, "Toxoplasma": 5.814}
{"structure": "CCN(CC1CCCO1)C(=O)Nc1cccc(N2CCOCC2)c1", "stereo": "stereo not shown", "LiHisRS": 14.52, "Toxoplasma": 26.61}
{"structure": "C=C(C)CN1CCN(Cc2cnc(-c3ccc(OC)cc3)nc2)CC1.O=C(O)CC(O)(CC(=O)O)C(=O)O", "Toxoplasma": -2.185}
{"structure": "CC(C)c1nc2c(n1C)CCN(CCc1ccccn1)C2", "LiHisRS": 0, "Toxoplasma": -0.7002}
{"structure": "[H][C@]12CN(Cc3ccccc3Br)C[C@]1([H])OCC(=O)N2", "Toxoplasma": -20.11}
{"structure": "O=C(CCc1cn[nH]c1)N1C[C@H](CO)C[C@H](CN2CCOCC2)C1", "LiHisRS": -1.075, "Toxoplasma": 0.05764}
{"structure": "CC(Cn1cccn1)NC(=O)N(C)Cc1ccsc1", "stereo": "stereo not shown", "LiHisRS": 22.89, "Toxoplasma": -15.26}
{"structure": "COCCN1C(=O)C[C@H]2[C@H]1CCN2Cc1ccccc1", "LiHisRS": 12}
{"structure": "Cn1ncnc1-c1ccnc(N2CCC(C(O)c3cccs3)CC2)n1", "stereo": "stereo not shown", "LiHisRS": 8.791, "Toxoplasma": 5.12}
{"structure": "Cc1cc(C)n(-c2nc(NCCCO)c3c4c(sc3n2)CCCC4)n1", "LiHisRS": 2.5, "Toxoplasma": 81.16}
{"structure": "[H][C@]12CN(Cc3cccs3)CCN1C[C@H](c1ccccc1)[C@H]2C(=O)NC", "Toxoplasma": -5.936}
{"structure": "CCNC(=O)NCc1cccc(N2CC=CC2)c1", "LiHisRS": 15.62, "Toxoplasma": -45.11}
{"structure": "Cc1occc1C(=O)N1C[C@@H](C(=O)NCc2ccco2)C[C@H]2OCC[C@H]21", "LiHisRS": -1.389}
{"structure": "CCOc1ccccc1N(C)C(=O)c1ccc(Cl)cn1", "LiHisRS": -1.493, "Toxoplasma": -11.85}
{"structure": "COc1ncccc1C(=O)Nc1cccc(C[S+](C)[O-])c1C", "stereo": "stereo not shown", "LiHisRS": 21.84, "Toxoplasma": 11.02}
{"structure": "Cc1ccc(CNCc2nnc3n2CC(C(F)(F)F)CC3)cc1", "stereo": "stereo not shown", "LiHisRS": -7.547, "Toxoplasma": 0.4785}
{"structure": "CCS(=O)(=O)N1CCc2ccc(NC(=O)Nc3ccccc3)cc21", "LiHisRS": -6.742, "Toxoplasma": 13.57}
{"structure": "CC(C)c1nn(C)c(N(C)C)c1CNCC(O)COc1ccccc1", "stereo": "stereo not shown", "LiHisRS": 17.65, "Toxoplasma": 2.803}
{"structure": "COc1ccc(C(=O)C2CCCN(Cc3ccncc3)C2)cc1OC", "stereo": "stereo not shown", "LiHisRS": 10.39, "Toxoplasma": 8.839}
{"structure": "O=C(O)C(F)(F)F.O=C(O)C(F)(F)F.O=C(O)C(F)(F)F.[H][C@@]12CN(Cc3nccs3)C[C@H](C(=O)Nc3cccnc3)[C@]1([H])CCO2", "Toxoplasma": -2.385}
{"structure": "COc1ccc(CNC(=O)NC2CCN(c3ccccc3)C2=O)cc1", "stereo": "stereo not shown", "LiHisRS": 9.917, "Toxoplasma": -9.548}

Once more, the final 3:

| structure | LiHisRS | Toxoplasma |
|---|---|---|
| `COc1ccc(C(=O)C2CCCN(Cc3ccncc3)C2)cc1OC` (stereo not shown) | 10.39 | 8.839 |
| `O=C(O)C(F)(F)F.O=C(O)C(F)(F)F.O=C(O)C(F)(F)F.[H][C@@]12CN(Cc3nccs3)C[C@H](C(=O)Nc3cccnc3)[C@]1([H])CCO2` | - | -2.385 |
| `COc1ccc(CNC(=O)NC2CCN(c3ccccc3)C2=O)cc1` (stereo not shown) | 9.917 | -9.548 |

Data taken from ChEMBL document CHEMBL3988442, “University of Dundee, Small-Polar-MMV Screening Library” (2021).